Values quoted from earlier work in patent US6964965B2, “Substituted pyrazine derivatives” (Pharmacia & Upjohn, priority 2002, dated 2005).
At least one compound was matched to its structure with a doubt left.

Experiments:
CRF [1] = details: conflict test (operant conflict test)
CRF [2] = details: acoustic startle test in rats

## CNC1=Nc2ccc(Cl)cc2C(c2ccccc2)=[N+]([O-])C1 [Chlordiazepoxide]
CRF [1]
  effect on the “anxiogenic” effects / actions of CRF in the conflict test: attenuates the “anxiogenic” effects of CRF
CRF [2]
  effect on the “anxiogenic” effects of CRF in the acoustic startle test: attenuates the “anxiogenic” effects of CRF
